Laboratory results: PubChem BioAssay AID1224828 (NIAID, 2016)
The deposit covers about 17,000 reagents; this is a random part of them. Over the whole deposit, 762 (4.5%) got an active call. 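Active calls include both raised and lowered p65 entry, mostly lowered; wells with fewer than 50 cells lack a z-score.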 Raw values vary from plate to plate and are shown uncorrected. Some reagents were tested in more than one well and are listed for each. Reagent sequences are not shown.

Purpose: 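Knock-downs that increase or decrease LPS-induced p65 nuclear translocation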 (primary screen)
System: mouse RAW264.7 G9 macrophage reporter cells (GFP-p65, Tnf promoter-mCherry)
Reagent: siRNA pool against mouse genes, 100 nM
Timing: 2 days siRNA transfection, then 40 min LPS before fixation
Treatment: LPS (Salmonella minnesota R595) at 10 ng/ml
Measured: 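Microscopy ratio of nuclear to perinuclear-ring GFP-p65 signal, scaled to the plate median; gene score is the average of two replicate robust z-scores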
Direction: p65 translocation robust z-score: higher = more nuclear NF-kappaB p65 after LPS than the plate median; nuclear/cytoplasmic p65 ratio: higher = more nuclear NF-kappaB p65
Call rule: 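Called active when z exceeds 3.3 or falls under -1.56 (median of Tlr4 controls), giving activity score of at least 50; no calls for control wells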
Calls: active = hit (p65 shift raised or lowered); inactive = no clear change

| gene symbol | p65 translocation robust z-score | nuclear/cytoplasmic p65 ratio, rep 1 | nuclear/cytoplasmic p65 ratio, rep 2 | low cell count flag | activity call |
| --- | --- | --- | --- | --- | --- |
| Zfp326 | 0.96 | 1.55 | 1.35 | enough cells to score | inactive |
| Vars2 | 0.64 | 1.47 | 1.3 | enough cells to score | inactive |
| Ca7 | -0.94 | 1.45 | 1.63 | enough cells to score | inactive |
| Armh4 | – | 1.29 | 1.49 | fewer than 50 cells per well; well left out of scoring | inactive |
| Golga4 | -0.34 | 1.46 | 1.53 | enough cells to score | inactive |
| Gtf2ird2 | -0.54 | 1.55 | 1.51 | enough cells to score | inactive |
| Tyrp1 | 0.25 | 1.56 | 1.52 | enough cells to score | inactive |
| Ippk | -0.84 | 1.53 | 1.3 | enough cells to score | inactive |
| Ippk | – | 1.27 | 1.17 | fewer than 50 cells per well; well left out of scoring | inactive |
| Tomm7 | – | 1.11 | 0.948 | fewer than 50 cells per well; well left out of scoring | inactive |
| Chic2 | 0.03 | 1.46 | 1.38 | enough cells to score | inactive |
| Sesn2 | – | 1.37 | 1.36 | fewer than 50 cells per well; well left out of scoring | inactive |
| Nr0b1 | -0.15 | 1.41 | 1.41 | enough cells to score | inactive |
| Atg16l1 | 0.28 | 1.59 | 1.6 | enough cells to score | inactive |
| Magea5 | 0.39 | 1.77 | 1.61 | enough cells to score | inactive |
| Isg20 | -1.04 | 1.4 | 1.19 | enough cells to score | inactive |
| Arrb2 | – | 1.35 | 1.57 | fewer than 50 cells per well; well left out of scoring | inactive |
| Zfp3 | 0.92 | 1.79 | 1.78 | enough cells to score | inactive |
| Gng8 | 1.69 | 1.91 | 1.78 | enough cells to score | inactive |
| Pcdha12 | 0.32 | 1.56 | 1.21 | enough cells to score | inactive |
| Ube2o | 0.43 | 1.75 | 1.61 | enough cells to score | inactive |
| Txndc5 | -0.21 | 1.46 | 1.49 | enough cells to score | inactive |
| Ikzf2 | 0.27 | 1.52 | 1.57 | enough cells to score | inactive |
| Vasp | 3.25 | 1.99 | 1.59 | enough cells to score | inactive |
| Babam1 | -0.89 | 1.25 | 1.29 | enough cells to score | inactive |
| Zfp655 | -1.24 | 1.19 | 1.34 | enough cells to score | inactive |
| Get3 | -0.34 | 1.5 | 1.52 | enough cells to score | inactive |
| Slc35e1 | -0.09 | 1.29 | 1.51 | enough cells to score | inactive |
| Hilpda | 0.49 | 1.67 | 1.7 | enough cells to score | inactive |
| Alx3 | -0.44 | 1.58 | 1.52 | enough cells to score | inactive |
| Cox8a | 0.14 | 1.56 | 1.84 | enough cells to score | inactive |
| Fam13b | 1.97 | 1.71 | 1.97 | enough cells to score | inactive |

Continued (3 carried over from the part before).
| gene symbol | p65 translocation robust z-score | nuclear/cytoplasmic p65 ratio, rep 1 | nuclear/cytoplasmic p65 ratio, rep 2 | low cell count flag | activity call |
| --- | --- | --- | --- | --- | --- |
| Alx3 | -0.44 | 1.58 | 1.52 | enough cells to score | inactive |
| Cox8a | 0.14 | 1.56 | 1.84 | enough cells to score | inactive |
| Fam13b | 1.97 | 1.71 | 1.97 | enough cells to score | inactive |
| Dpysl3 | – | 1.59 | 1.13 | fewer than 50 cells per well; well left out of scoring | inactive |
| Lhx8 | 0.74 | 1.85 | 1.45 | enough cells to score | inactive |
| Agpat3 | 0.17 | 1.69 | 1.65 | enough cells to score | inactive |
| Tcfl5 | -0.51 | 1.46 | 1.43 | enough cells to score | inactive |
| Gnpda2 | 0.84 | 1.74 | 1.68 | enough cells to score | inactive |
| Ece1 | 0.51 | 1.57 | 1.4 | enough cells to score | inactive |
| Rita1 | -0.04 | 1.41 | 1.56 | enough cells to score | inactive |
| Mccc2 | -0.81 | 1.33 | 1.31 | enough cells to score | inactive |
| Fam3c | 1.34 | 1.74 | 1.77 | enough cells to score | inactive |
| Exosc2 | -0.69 | 1.47 | 1.21 | enough cells to score | inactive |
| Enpep | 0.54 | 1.51 | 1.46 | enough cells to score | inactive |
| Ythdc1 | 0.43 | 1.4 | 1.63 | enough cells to score | inactive |
| Selenow | 0.67 | 1.6 | 1.24 | enough cells to score | inactive |
| Slc25a33 | -1.68 | 1.19 | 1.19 | enough cells to score | active |
| Unkl | -0.58 | 1.42 | 1.5 | enough cells to score | inactive |
| C1qtnf12 | -1.49 | 1.29 | 1.11 | enough cells to score | inactive |
| Nfxl1 | 0.96 | 1.53 | 1.71 | enough cells to score | inactive |
| Tomm6 | 0.99 | 1.73 | 1.53 | enough cells to score | inactive |
| Gabrg2 | -0.32 | 1.37 | 1.35 | enough cells to score | inactive |
| Pitx1 | -0.82 | 1.35 | 1.33 | enough cells to score | inactive |
| Cpne6 | -0.32 | 1.57 | 1.68 | enough cells to score | inactive |
| Sh3bp1 | 0.35 | 1.44 | 1.3 | enough cells to score | inactive |
| Tspan10 | -0.55 | 1.69 | 1.4 | enough cells to score | inactive |
| Med27 | 1.22 | 1.64 | 1.54 | enough cells to score | inactive |
| Mei1 | -0.61 | 1.69 | 1.4 | enough cells to score | inactive |
| Siglech | -1.22 | 1.44 | 1.42 | enough cells to score | inactive |
| Rfxank | -0.22 | 1.64 | 1.33 | enough cells to score | inactive |
